# The other results are listed elsewhere or left out. Further columns of the screen follow, without active or inactive calls. The list favours compounds with an active or inconclusive main result. The note in brackets gives the kind of curve behind each potency; many fits are weak.
# Test: IkB Signaling
# Conditions: ABC-DLBCL IkBa-CBG/CBR dual luciferase ratio (green luciferase fused to IkBa over red control in OCI-Ly3 lymphoma cells), 4 h; measured here: control luc red channel unless noted
# Procedure, shortened: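 Curves were fitted separately to fusion (green), unfused (red) and ratio luminescence, then classed by r2, magnitude and activity. Cells: OCI-Ly3, 4 h compound plus doxycycline at 37C; 10 uM MG-132 defined full response.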
row,Structure (SMILES),AC50
1,CCOc1ccc(-c2nc(CSCC(=O)N3CCN(c4cccc(C(F)(F)F)c4)CC3)c(C)o2)cc1,"15.8 µM [falling, partial curve]"
2,Cc1cc2c3c(c1)C1(C(=O)N3C(C)(C)CC2C)C(C#N)=C(N)Oc2cc(O)ccc21 (stereo unspecified),"12.6 µM [falling, partial curve]"
3,CCc1ccc(NC(=O)c2cc(C(C)=O)n3ccccc23)cc1,"25.1 µM [falling, single point]"
4,CC(C)c1ccc(C2N3CC4(C)CN2CC(c2ccccc2)(C3)C4=O)cc1 (stereo unspecified),"15.8 µM [falling, partial curve]"
5,CCCc1nn2c(=O)cc(COC(=O)c3cccc(NC(=O)COc4ccc(F)cc4)c3)nc2s1,"0.398 µM [falling, full curve]"
6,Clc1cccc(N2CCN(c3ncnc4c3nc3n4CCCCC3)CC2)c1,"3.98 µM [falling, full curve]"
7,Cc1nc(-c2ccc(Cl)cc2)sc1CCNC(=O)C(=O)Nc1ccc(F)cc1F,"10 µM [rising, partial curve, poor fit]"
8,CCCCN1C(=O)c2[nH]nc(-c3ccccc3O)c2C1c1cccc(OCc2ccccc2)c1 (stereo unspecified),"25.1 µM [falling, partial curve]"
9,Cc1ccccc1NC(=O)c1ccc(F)c(S(=O)(=O)N(C)Cc2ccccc2)c1,"39.8 µM [falling, single point]"
10,COc1ccccc1C1C=C(c2ccc(F)cc2)Nc2nc(-c3ccc(Cl)cc3)nn21 (stereo unspecified),"10 µM [falling, partial curve]"
11,Cc1ccc2[nH]c(=O)c3cc(C(=O)N4CCN(c5ccccc5)CC4)sc3c2c1,"1 µM [falling, full curve]"
12,COc1cccc(NC(=O)NCc2ccc3c(c2)CCN3C(=O)c2ccccc2)c1,"15.8 µM [falling, partial curve]"
13,Cc1cccc(C(=O)Nc2sc3c(c2C(=O)NCc2ccco2)CCCC3)c1,"6.31 µM [falling, partial curve]"
14,COc1ccccc1-c1nc2c(c(SCc3cccc(Cl)c3)n1)Cc1c(CO)cnc(C)c1O2,"0.158 µM [rising, full curve, poor fit]"
15,CCOC(=O)c1ccccc1NC(=O)N1CCc2c(sc(C)c2CC)C1c1ccccc1 (stereo unspecified),"0.00631 µM [rising, full curve]"
16,COc1cc(OC)cc(C(=O)Oc2c(Sc3ccccc3)c(C)nn2C(C)(C)C)c1,"0.251 µM [rising, full curve]"
17,CCOc1ccc(-n2c(Cc3ccccc3)nnc2SCc2nc(-c3ccccc3OC)no2)cc1,"39.8 µM [falling, single point]"
18,O=C(Nc1cccs1)Nc1cc(C(F)(F)F)ccc1Cl,"20 µM [falling, partial curve]"
19,CCOC(=O)C1CCN(c2ncnc3c2c(-c2ccccc2)cn3-c2cccc(C)c2)CC1,"25.1 µM [falling, partial curve]"
20,CCOC(=O)c1c(C)[nH]c2ccc3c(c12)CN1CCc2cc(OC)ccc2[C@@H]1O3,"39.8 µM [falling, single point]"
21,Cc1cccc(NC(=O)CCCn2c(C)c3cnn(-c4ccccc4)c(=O)c3c2C)c1C,"0.501 µM [falling, full curve]"

row,Structure (SMILES),AC50
1,CCc1ccc(CNC(=O)c2sc3ncccc3c2-n2c(C)ccc2C)cc1,"20 µM [falling, single point]"
2,CCOc1ccccc1CNS(=O)(=O)c1ccc2c(c1)CCCN2C(C)=O,"25.1 µM [rising, single point]"
3,Cc1ccc(OCC(=O)Nc2ccc(S(=O)(=O)Nc3cc(C)nc(C)n3)cc2)c(Br)c1,"25.1 µM [falling, single point]"
4,O=C(NCc1cn2ccsc2n1)Nc1cccc(Cl)c1,"20 µM [falling, single point]"
5,COc1ccc(C2=CC(c3ccc(F)cc3)n3ncc(C(=O)Nc4ccc(C)cc4)c3N2)cc1 (stereo unspecified),"3.16 µM [falling, single point]"
6,COc1cccc(NC(=O)CSc2nc3c(oc4ccccc43)c(=O)n2Cc2ccco2)c1,"25.1 µM [falling, partial curve, poor fit]"
7,CCOC(=O)C1CCCN(C(=O)C2CCN(c3nnc(C)c4c(C)n(-c5ccccc5)nc34)CC2)C1 (stereo unspecified),"15.8 µM [falling, partial curve]"
8,CC1CN(c2nn3c(=O)c4ccccc4nc3c3ccccc23)CC(C)O1 (stereo unspecified),"20 µM [falling, partial curve]"
9,Clc1ccc(-c2noc3ncnc(NCCCN4CCN(c5ccccc5)CC4)c23)cc1,"39.8 µM [falling, single point]"
10,Cc1cc(NC(=O)CSc2nc3c([nH]c4ccccc43)c(=O)n2-c2cccc(Cl)c2)no1,"31.6 µM [rising, single point]"
11,CCOc1ccccc1NC(=O)C(Cc1ccccc1)NS(=O)(=O)c1ccc(Br)s1 (stereo unspecified),"15.8 µM [falling, partial curve]"
12,Cc1ccc(C)c(N2CCN(C(=O)C3CCN(S(=O)(=O)c4cn(C)cn4)CC3)CC2)c1,"10 µM [falling, full curve]"
13,COc1ccc(CNS(=O)(=O)c2cc(C(=O)Nc3cc(Cl)cc(Cl)c3)ccc2F)cc1,"25.1 µM [falling, partial curve]"
14,CCc1ccc(CNC(=O)C(CC)n2ccc3cc(S(=O)(=O)N4CCCCC4)ccc32)cc1 (stereo unspecified),"3.98 µM [falling, full curve]"
15,CCOC(=O)N1CCc2c(sc(NCc3ccc(OCC)cc3)c2C(=O)Nc2ccc(OC)cc2OC)C1,"0.2 µM [falling, full curve, poor fit]"
16,O=C(NC1CCCC1)c1ccc(CSc2nc3ccncc3n2Cc2ccccc2F)cc1,"39.8 µM [falling, single point]"
17,O=C(Nc1ccccc1F)C(Cc1ccccc1)n1cccc1 (stereo unspecified),"12.6 µM [falling, single point]"
18,CCc1ccc(-c2nc(CSCC(=O)N3CCN(c4ccccn4)CC3)c(C)o2)cc1,"5.01 µM [falling, full curve, poor fit]"
19,O=C(Nc1ccc2nc(SCC(=O)N3CCOCC3)sc2c1)c1ccc(F)cc1,"12.6 µM [falling, partial curve]"
20,Cc1ccc(SCc2[nH]nc3c2C(c2ccco2)C(C#N)=C(N)O3)cc1 (stereo unspecified),"10 µM [falling, partial curve]"
21,COc1cc(OC)cc(-c2nc3nc(C)c(CCC(=O)Nc4ccc(Cl)cc4)c(C)n3n2)c1,"12.6 µM [falling, partial curve]"

row,Structure (SMILES),AC50
1,CCOC(=O)Cn1c(=O)oc2cc(S(=O)(=O)Nc3cc(OC)cc(OC)c3)ccc21,"25.1 µM [falling, partial curve]"
2,O=c1[nH]c2ccc(S(=O)(=O)Nc3ccc(-c4nnc5n4CCCCC5)cc3)cc2o1,"20 µM [falling, partial curve]"
3,O=C(NCc1cccs1)c1ccc(N2CCCCC2)nc1,"12.6 µM [falling, partial curve]"
4,C/C=C/Cn1c(SC)nc2c1c(=O)[nH]c(=O)n2C,"251 nM [rising, partial curve, poor fit] [measured here: IkB-luc green channel]"
5,Cc1cccc(C(=O)Nc2cccc(C(=O)OCc3cc(=O)n4c5c(sc4n3)CCCC5)c2)c1,"2 µM [falling, full curve]"
6,CCn1c(C)c(C)c2cc(C(=O)NCCc3cc(OC)c(OC)c(OC)c3)ccc21,"0.2 µM [rising, full curve, poor fit]"
7,CCOCCOC(=O)C1=C(C)NC2=C(C(=O)CC(c3cccs3)C2)C1c1ccsc1 (stereo unspecified),"3.98 µM [falling, partial curve]"
8,O=C(CC1N=C2c3ccccc3N=C(SCC(=O)Nc3cccc(Cl)c3)N2C1=O)NCc1cccs1 (stereo unspecified),"25.1 µM [falling, partial curve]"
9,Cc1cc(C)cc(N(CC(=O)N2CCN(c3ccccc3)CC2)S(=O)(=O)c2c(C)noc2C)c1,"10 µM [falling, partial curve]"
10,Oc1c(C(c2ccc(Cl)cc2Cl)N2CCOCC2)sc2nc(-c3ccco3)nn12 (stereo unspecified),"39.8 µM [falling, single point]"
11,O=C(NCc1ccc(F)cc1)c1ccc(CS(=O)(=O)c2ccc(Cl)cc2)o1,"39.8 µM [falling, single point]"
12,Cc1ccc2c(=O)cc(C(=O)Nc3nnc(CC(C)C)s3)oc2c1C,"0.2 µM [falling, full curve, poor fit]"
13,CCOC(=O)c1sc(NC(=O)c2ccc(C)o2)nc1C,"15.8 µM [falling, partial curve]"
14,Nc1c(S(=O)(=O)c2cccs2)c2nc3ccccc3nc2n1Cc1cccs1,"12.6 µM [falling, partial curve]"
15,O=C(CN(c1ccc(Cl)c(C(F)(F)F)c1)S(=O)(=O)c1ccccc1)N1CCc2ccccc2C1,"25.1 µM [falling, partial curve]"
16,Cc1ccc(NC(=O)c2sc(-n3nc(C)c(CCC(C)C)c3C)nc2C)cc1C,"0.158 µM [falling, full curve, poor fit]"
17,CCc1ccccc1N(C)C(=O)C1CCCN(c2ncnc3onc(-c4ccc(F)cc4)c23)C1 (stereo unspecified),"20 µM [falling, partial curve]"
18,Cc1ccc(OCCn2c(CNc3cccc(C)c3)nc3ccccc32)cc1,"7.94 µM [falling, full curve]"
19,COc1ccccc1CNc1cc(-c2ccccc2)nc2nncn12,"31.6 µM [falling, partial curve]"

# Some of these compounds in order of SMILES length, low to high:
row,Structure (SMILES),AC50
3,CCc1ccc(NC(=O)c2cc(C(C)=O)n3ccccc23)cc1,"25.1 µM [falling, single point]"
15,CCOC(=O)c1ccccc1NC(=O)N1CCc2c(sc(C)c2CC)C1c1ccccc1 (stereo unspecified),"0.00631 µM [rising, full curve]"
13,COc1ccc(CNS(=O)(=O)c2cc(C(=O)Nc3cc(Cl)cc(Cl)c3)ccc2F)cc1,"25.1 µM [falling, partial curve]"

# Reference: PubChem BioAssay AID445 (National Center for Advancing Translational Sciences (NCATS), 2006)
